Source: US20050288503A1, “Novel compounds” (priority 2002, published 2005)
Some entries share one result that the patent states for a list of compounds.

The chains behind the UniProt entries cited, without tags or fusion partners.
UniProt Q16539, whole entry: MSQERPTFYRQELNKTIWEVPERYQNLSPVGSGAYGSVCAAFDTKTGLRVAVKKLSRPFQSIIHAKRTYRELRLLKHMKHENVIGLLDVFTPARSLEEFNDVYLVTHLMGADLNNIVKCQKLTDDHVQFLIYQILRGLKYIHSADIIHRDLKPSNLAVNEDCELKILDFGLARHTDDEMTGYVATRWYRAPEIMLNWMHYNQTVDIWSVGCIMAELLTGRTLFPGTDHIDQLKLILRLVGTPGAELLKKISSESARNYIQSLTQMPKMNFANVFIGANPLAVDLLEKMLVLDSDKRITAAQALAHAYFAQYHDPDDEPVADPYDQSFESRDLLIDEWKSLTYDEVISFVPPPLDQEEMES

Biological target: CSBP/p38 (Homo sapiens, UniProt Q16539)
Test: CSBP/p38 Kinase Assay (32P transfer from ATP to EGFR-derived T669 peptide)
Assay type: biochemical
Conditions: chemical intermediates

SMILES | activity in the CSBP/p38 kinase assay
COc1ccccc1Nc1nc(-c2ccc(F)cc2C)nc2c1ncn2C [Example 3, [2-(4-fluoro-2-methyl-phenyl)-9-methyl-9H-purin-6-yl]-(2-methoxy-phenyl)-amine] | do not display activity
Cn1cnc2c(Nc3c(F)cccc3F)nc(-c3ccc(Cl)cc3)nc21 [Example 9, [2-(4-chloro-phenyl)-9-methyl-9H-purin-6-yl]-(2,6-difluoro-phenyl)-amine] | do not display activity
Fc1ccccc1-c1nc(Nc2c(F)cccc2F)c2ncn(CCN3CCOCC3)c2n1 [Example 21, (2,6-difluoro-phenyl)-[2-(2-fluoro-phenyl)-9-(2-morpholin-4-yl-ethyl)-9H-purin-6-yl]-amine] | do not display activity
